The record followed here is PMC6769022, “Identification of an adhesive interface for the non-clustered δ1 protocadherin-1 involved in respiratory diseases” (Communications Biology, 2019).

In assay [1] the target is PCDH1 EC1-4 C375S K398E (human) (UniProt Q08174). Put plainly: AUC; sedimentation velocity, 50,000 r.p.m., 20 °C, 20 mM Tris-HCl pH 8.0, 150 mM KCl, 50 mM NaCl, 2 mM CaCl2; dimer to monomers; both purified.
For assay [2], the target named is PCDH1 EC1-7Fc K398E (human) (UniProt Q08174). Put plainly: bead aggregation assay; Fc fusions from concentrated HEK293T medium bound to protein G Dynabeads, washed; binding buffer 50 mM TrisHCl pH 7.5, 100 mM NaCl, 10 mM KCl, 0.2% BSA with 2 mM CaCl2; 60 min without motion, then 1 and 2 min rocking; aggregates imaged; both purified.
Assay [3] addresses PCDH1 EC1-7Fc (human) (UniProt Q08174). Put plainly: bead aggregation assay; as the calcium assay, but with 2 mM EDTA in place of 2 mM CaCl2; both purified.

No constants are given. Whether binding was seen depends on the method and setting.

For the molecule “PCDH1 EC1-4 C375S K398E (from UniProt Q08174 58-503) (domain or fragment)”, in assay [1], the binding result is given as “no binding”.
For “PCDH1 EC1-7Fc K398E (from UniProt Q08174 58-852) (Fc fusion)”, the binding entry in assay [2] is listed as “no binding”.

B1: PCDH1 EC1-7Fc (Fc fusion, human, UniProt Q08174 58-852, looked up)
chain: TRVVYKVPEEQPPNTLIGSLAADYGFPDVGHLYKLEVGAPYLRVDGKTGDIFTTETSIDREGLRECQNQLPGDPCILEFEVSITDLVQNGSPRLLEGQIEVQDINDNTPNFASPVITLAIPENTNIGSLFPIPLASDRDAGPNGVASYELQAGPEAQELFGLQVAEDQEEKQPQLIVMGNLDRERWDSYDLTIKVQDGGSPPRASSALLRVTVLDTNDNAPKFERPSYEAELSENSPIGHSVIQVKANDSDQGANAEIEYTFHQAPEVVRRLLRLDRNTGLITVQGPVDREDLSTLRFSVLAKDRGTNPKSARAQVVVTVKDMNDNAPTIEIRGIGLVTHQDGMANISEDVAEETAVALVQVSDRDEGENAAVTCVVAGDVPFQLRQASETGSDSKKKYFLQTTTPLDYEKVKDYTIEIVAVDSGNPPLSSTNSLKVQVVDVNDNAPVFTQSVTEVAFPENNKPGEVIAEITASDADSGSNAELVYSLEPEPAAKGLFTISPETGEIQVKTSLDREQRESYELKVVAADRGSPSLQGTATVLVNVLDCNDNDPKFMLSGYNFSVMENMPALSPVGMVTVIDGDKGENAQVQLSVEQDNGDFVIQNGTGTILSSLSFDREQQSTYTFQLKAVDGGVPPRSAYVGVTINVLDENDNAPYITAPSNTSHKLLTPQTRLGETVSQVAAEDFDSGVNAELIYSIAGGNPYGLFQIGSHSGAITLEKEIERRHHGLHRLVVKVSDRGKPPRYGTALVHLYVNETLANRTLLETLLGHSLDTPLDIDIAGDPEYERSKQRGN
notes: Protocadherin-1 (PCDH1), human, repeats EC1 to EC7 (full-length extracellular domain); native signal peptide in the construct; Vector CMV:N1-Fc; Fc detected with anti-human IgG; also called human Protocadherin-1 full-length extracellular domain, Fc-tagged; wild-type PCDH1 EC1-7Fc; source: HEK293T, transfected, secreted into serum-free medium, captured on protein G Dynabeads
For B1, in assay [3], the binding result was “no binding (condition: with 2 mM EDTA)”.
